Laboratory results published in PubChem BioAssay AID651814 (National Center for Advancing Translational Sciences (NCATS), 2012).
Out of some 2,100 compounds screened, about 590 (28%) were called active. The inconclusive results got no clear call from the source; some entries with a clear call stand among them for comparison. Calls follow the shape of the dose curve; as a rule, active = well fitted inhibition curve with a large enough effect; inconclusive = small, poorly fitted or top-dose-only effect; inactive = flat fitted curve, though single readings scatter. Potencies beside an inconclusive call are fits to weak or partial responses and may not hold up.

The chains behind the UniProt entries cited, without tags or fusion partners. Where a name states a change or a piece, a line headed by the entry shows the natural chain unless it says otherwise.
UniProt Q8IUX4: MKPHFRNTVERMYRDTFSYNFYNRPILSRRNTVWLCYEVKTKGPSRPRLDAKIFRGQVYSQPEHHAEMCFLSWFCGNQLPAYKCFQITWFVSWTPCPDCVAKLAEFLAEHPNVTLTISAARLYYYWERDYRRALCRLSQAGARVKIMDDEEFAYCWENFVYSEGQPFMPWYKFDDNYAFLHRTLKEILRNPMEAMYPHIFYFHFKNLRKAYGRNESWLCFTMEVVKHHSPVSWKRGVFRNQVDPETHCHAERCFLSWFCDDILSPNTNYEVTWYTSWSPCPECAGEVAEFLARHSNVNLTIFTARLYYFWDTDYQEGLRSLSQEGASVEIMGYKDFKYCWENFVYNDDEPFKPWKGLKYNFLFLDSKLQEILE

Each molecule was assayed against DNA dC->dU-editing enzyme APOBEC-3F (Homo sapiens) (UniProt Q8IUX4) (assay: qHTS for inhibitors of Vif-A3F interactions: Cherry picks). Conditions: HeLa A3F-eYFP + Vif (tagged APOBEC3F with the HIV-1 protein that degrades it), eYFP fluorescence, 24 h.
How it was run: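 Read-out: yellow fluorescence (ex 488 nm, em 500-530 nm) by laser-scanning cytometer after 24 h compound exposure, several concentrations, at 37 deg C. Cells: HeLa line stably co-expressing Vif and C-terminally eYFP-tagged A3F; MG132 served as positive control.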
Also: nearly all actives have a fitted effect of over 70% in size.
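For max response in this document: % of control where 0% means no effect; active compounds raise eYFP fluorescence by blocking Vif-driven A3F loss.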
Potency is read from the fitted curve at half-maximal effect.

SMILES	Potency	max response
N#Cc1ccc(-c2cccs2)nc1SCc1c(F)cccc1Cl	inconclusive: 2.31 µM [inhibitor, full curve]	–
COc1ccc(C(=O)c2ccc(OC)c(OC)c2OC)cc1	inconclusive: 2.23 µM [inhibitor, full curve]	–
CCN1CCN(c2c(/C=C3\SC(=S)N(Cc4ccco4)C3=O)c(C)c(C#N)c(=O)n2C)CC1	inconclusive: 7.31 µM [inhibitor, single point]	–
COc1ccc2nc(Nc3nc(CSc4ccc(C)cc4)cc(=O)[nH]3)nc(C)c2c1	inconclusive: 29.1 µM [inhibitor, single point]	–
Nc1c(N(CCC2=CCCCC2)C(=O)c2ccc([N+](=O)[O-])o2)c(=O)[nH]c(=O)n1Cc1ccccc1	inconclusive: 29.1 µM [inhibitor, single point]	–
CCOc1ccccc1NC(=O)Cn1nnc(C(=O)NCc2cccs2)c1N	inconclusive: 0.366 µM [inhibitor, full curve]	–
COc1ccc2nc(SCC(=O)Nc3ccc4sc(C)nc4c3)c(C#N)cc2c1	inconclusive: 18.4 µM [inhibitor, single point]	–
COc1cc(/C=C2\SC(N)=NC2=O)cc(Br)c1O	inconclusive: 17.7 µM [inhibitor, single point]	–
CCOc1ccc(Br)cc1/C(C)=N\NC1=NCCN1	inconclusive: 14 µM [inhibitor, single point]	–
Cc1ccc(/C=N/NC(=O)c2ccc3ccccc3c2)s1	inconclusive: 1.58 µM [inhibitor, full curve]	–
CCc1ccc(CNC(=O)Cc2ccc(NC(=O)C3=C(C)OCCS3)cc2)cc1	inconclusive: 0.627 µM [inhibitor, full curve]	–
C=CCNC(=O)C(C#N)c1nc2ccccc2nc1N1CCN(Cc2ccccc2)CC1 (stereo not given)	inconclusive: 29.1 µM [inhibitor, single point]	–
O=C1C(=Cc2cccn2-c2ccccc2)C(=O)c2ccccc21	inconclusive: 20.6 µM [inhibitor, single point]	–
COc1ccc(CN(C(C)=O)c2cccc(C)c2C)cc1	–	inactive: -29.4%
Nc1cccc(CCc2nc3cc4ccccc4cc3[nH]2)c1	inconclusive: 4.44 µM [inhibitor, partial curve]	–
COCCOC(=O)c1[nH]c2c(c1C)C(=O)CC(c1ccccc1)C2 (stereo not given)	inconclusive: 1.25 µM [inhibitor, full curve]	–
N#C/C(=C\c1ccccc1[N+](=O)[O-])C(=O)NCc1ccccc1	–	inactive: -6.74%
COc1ccc(C(=O)N2CCN(c3cccc(Cl)c3)CC2)cc1S(=O)(=O)NC1CC1	inconclusive: 6.27 µM [inhibitor, partial curve, poor fit]	–
COc1ccc(-n2nnnc2S(=O)(=O)Cc2ccc(C(=O)O)cc2)cc1	inconclusive: 15.8 µM [inhibitor, single point]	–
CCOc1ccc(S(=O)(=O)N(CC(=O)N/N=C/c2ccc(-c3ccc([N+](=O)[O-])cc3)o2)c2ccccc2)cc1	inconclusive: 6.27 µM [inhibitor, partial curve]	–

SMILES	Potency	max response
O=C1c2cccc3c(N4CCCCC4)ccc(c23)C(=O)N1c1ccccc1O	inconclusive: 6.51 µM [inhibitor, single point]	–
CCc1cccc2cc3c(N)c(C(=O)Nc4ccc(S(=O)(=O)N5CCCC5)cc4)sc3nc12	active: 2.8 µM	–
C(=Cc1c[nH]c2ccccc12)c1ccc2ccccc2n1	active: 23.1 µM	–
CCOC(=O)c1cc(-c2ccccc2C)n(CC2CC(c3ccc(OC)cc3)=NO2)n1 (stereo not given)	–	inactive: 6%
CCC1CC=CC2C1C(=O)N(Cc1ccccc1)C2c1ccoc1 (stereo not given)	inconclusive: 29.1 µM [inhibitor, single point]	–
COc1cc(/C=C2/CC/C(=C/c3ccc(O)c(OC)c3)C2=O)ccc1O	–	inactive: -11.3%
CN1C/C(=C/c2cccnc2)C(=O)/C(=C/c2cccnc2)C1	inconclusive: 25 µM [inhibitor, single point]	–
O=C1c2cccc3c(N4CCCCC4)ccc(c23)C(=O)N1c1cccc(O)c1	inconclusive: 4.11 µM [inhibitor, single point]	–
O=C(NCc1cccs1)C1CCN(c2ccc(S(=O)(=O)N3CCOCC3)cc2Cl)CC1	inconclusive: 1.4 µM [inhibitor, full curve, poor fit]	–
CC(C)OC(=O)c1ccc(NCc2cc(O)ccc2O)cc1Cl	inconclusive: 12.5 µM [inhibitor, partial curve]	–
CC1=CC(C)(C)Nc2ccc(OC(=O)CN3C(=O)CCC3=O)cc21	inconclusive: 15.8 µM [inhibitor, single point]	–
O=c1[nH]c(-c2cccnc2)nc2sc(-c3ccccc3)cc12	inconclusive: 7.04 µM [inhibitor, partial curve]	–
CN(CC(=O)Nc1ccc(Cl)c(C(F)(F)F)c1)C(=O)c1ccc(S(=O)(=O)N2CCOCC2)cc1	inconclusive: 5.59 µM [inhibitor, partial curve]	–
COC(=O)C1CCC(=O)N1C(c1ccc(OC)cc1)c1cc(OC)c(OC)c(OC)c1 (stereo not given)	inconclusive: 0.627 µM [inhibitor, full curve]	–
CC(=O)c1cccc(-c2ccnc3c2CC(C(=O)NCC2CC2)O3)c1 (stereo not given)	inconclusive: 4.98 µM [inhibitor, partial curve]	–
Cc1cc(C)c(N2C(=O)CC(Sc3ccccc3N)C2=O)c(C)c1 (stereo not given)	inconclusive: 17.7 µM [inhibitor, partial curve]	–
N=C1/C(=C\c2coc3ccccc3c2=O)C(=O)N=C2SC(c3ccncc3)=NN12	inconclusive: 23.1 µM [inhibitor, single point]	–
O=C(Nc1ccc(Oc2ccc(NC(=O)Nc3ccccc3Cl)cc2)cc1)Nc1ccccc1Cl	inconclusive: 23.1 µM [inhibitor, partial curve]	–
O=C1NC(=Nc2ccccc2Cl)S/C1=C\c1cc([N+](=O)[O-])ccc1O	inconclusive: 14 µM [inhibitor, single point]	–
COC(=O)c1sc(N)c(C(=O)OC)c1COC(=O)c1c(C)noc1C	inconclusive: 2.5 µM [inhibitor, full curve]	–

Single values from above:
CC(=O)c1cccc(-c2ccnc3c2CC(C(=O)NCC2CC2)O3)c1 (stereo not given) – Potency: inconclusive: 4.98 µM [inhibitor, partial curve]
O=C1c2cccc3c(N4CCCCC4)ccc(c23)C(=O)N1c1ccccc1O – Potency: inconclusive: 6.51 µM [inhibitor, single point]
CC1=CC(C)(C)Nc2ccc(OC(=O)CN3C(=O)CCC3=O)cc21 – Potency: inconclusive: 15.8 µM [inhibitor, single point]
